# Test results published in PubChem BioAssay AID504327 (National Center for Advancing Translational Sciences (NCATS), 2011).
# By UniProt entry, the sequences of proteins in these tests, tags left out.
# UniProt Q92830, whole entry, looked up: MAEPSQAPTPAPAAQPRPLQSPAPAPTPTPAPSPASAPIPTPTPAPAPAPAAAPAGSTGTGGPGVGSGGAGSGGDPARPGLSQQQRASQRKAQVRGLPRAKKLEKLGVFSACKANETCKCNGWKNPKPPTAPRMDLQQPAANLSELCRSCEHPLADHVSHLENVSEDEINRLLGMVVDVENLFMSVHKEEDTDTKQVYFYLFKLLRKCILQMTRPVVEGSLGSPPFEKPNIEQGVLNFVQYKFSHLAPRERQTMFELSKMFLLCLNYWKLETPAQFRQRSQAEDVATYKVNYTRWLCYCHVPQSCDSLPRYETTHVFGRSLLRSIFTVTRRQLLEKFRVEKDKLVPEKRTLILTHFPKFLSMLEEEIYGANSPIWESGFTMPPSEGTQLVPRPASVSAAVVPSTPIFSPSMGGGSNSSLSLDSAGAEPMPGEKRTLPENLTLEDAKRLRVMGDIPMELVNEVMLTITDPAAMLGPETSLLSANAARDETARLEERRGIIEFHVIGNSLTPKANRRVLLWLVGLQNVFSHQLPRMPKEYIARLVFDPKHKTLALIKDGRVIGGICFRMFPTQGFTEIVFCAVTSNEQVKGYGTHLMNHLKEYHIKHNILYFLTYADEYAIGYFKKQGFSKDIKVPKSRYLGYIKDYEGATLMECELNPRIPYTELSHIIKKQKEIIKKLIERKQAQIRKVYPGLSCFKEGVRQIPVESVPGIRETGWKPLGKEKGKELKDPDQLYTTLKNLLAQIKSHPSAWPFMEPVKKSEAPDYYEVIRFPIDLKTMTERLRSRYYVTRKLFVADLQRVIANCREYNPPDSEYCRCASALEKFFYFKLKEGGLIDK
# Hit rate of the full screen: of about 390,000 compounds, about 820 (0.21%) were called active. The shares of active, inactive and inconclusive entries below differ from those in the screen. Calls follow the shape of the dose curve; as a rule, active = well fitted inhibition curve with a large enough effect; inconclusive = small, poorly fitted or top-dose-only effect, or another doubt; inactive = no such curve, though single readings can be large or run the other way. Where the call is inconclusive, the potency comes from a doubtful curve fit.
# Target: Histone acetyltransferase KAT2A (Homo sapiens) (UniProt Q92830)
# Test: qHTS Assay for Inhibitors of GCN5L2
# Conditions: GCN5L2 HAT assay, ThioGlo1 CoA-SH fluorescence; series mostly up to 58.9 µM
# Procedure, shortened: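 Fluorescence readout, Ex340nm/Em540nm: ThioGlo1 (50uM final) reacts with free CoA thiol released as 20nM GCN5L2 acetylates H3(1-25) peptide (75uM) using acetyl-CoA (70uM). Compound and enzyme sat 15 min beforehand; 20 min room-temperature reaction.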
# Potency is read from the fitted curve at half-maximal effect.
row,SMILES,Potency
1,COc1ccc(C2CC(=O)Nc3ccccc3S2(=O)=O)cc1OC (stereo not given),inactive
2,Cc1nn(Cc2ccccc2Cl)c2sc(C(=O)Nc3ccccc3N3CCOCC3)cc12,inactive
3,Cc1cccc(C2=NN(c3ccccc3)[C@@H](C(=O)N3CCOC3=O)[C@@H]2c2ccc([N+](=O)[O-])cc2)c1,"inconclusive: 25.1 µM [inhibitor, partial curve]"
4,O=C1CSC(=S)N1N=C1CCCCCC1,inactive
5,CCOC(=O)c1cc2c(=O)n3ccccc3nc2n(CC2CCCO2)c1=NC(C)=O (stereo not given),"inconclusive: 22.4 µM [inhibitor, single point]"
6,C[N+]1(CC2COC(c3ccccc3)(C3CCCCC3)O2)CCCCC1 (stereo not given),active: 22.4 µM
7,O=C(CN1CCCCC1)Nc1ccccc1Oc1ccccc1,"inconclusive: 2.82 µM [inhibitor, partial curve]"
8,COc1ccc(-c2[nH]ncc2-c2csc(C)n2)c(O)c1,"inconclusive: 7.94 µM [inhibitor, single point]"
9,O=C1c2cccc3cccc(c23)N1Cc1ccc(F)cc1,inactive
10,N#C/C(=C/c1ccco1)C(N)=S,"inconclusive: 39.8 µM [inhibitor, single point]"
11,CCOC(=O)c1cnc2c(ccc3ccccc32)c1Nc1ccc(Cl)cc1,inactive
12,COc1ccc(C(=O)/C=C2\NCC3c4ccccc4CCN3C2=O)cc1 (stereo not given),"inconclusive: 39.8 µM [inhibitor, single point]"
13,COC(=O)c1ccc(C(=O)OC)c(NC(=O)CSc2n[nH]c(N)n2)c1,inactive
14,Cn1c(CN2CCOCC2)nnc1SCC(=O)Nc1ccc([N+](=O)[O-])cc1O,"inconclusive: 5.62 µM [inhibitor, single point]"
15,CCCCN(C(=S)NC(=O)c1ccccc1)c1c(N)n(Cc2ccccc2)c(=O)[nH]c1=O,"inconclusive: 8.91 µM [inhibitor, partial curve, poor fit]"
16,CC(C)(C)c1ccc(-c2nc(SCC(=O)Nc3ccccc3F)n3[nH]c(=O)cc3n2)cc1,"inconclusive: 35.5 µM [inhibitor, single point]"
17,CC1=C(C#N)C(=O)NC(=O)/C1=C\c1ccc(-c2ccc(C)cc2[N+](=O)[O-])o1,"inconclusive: 31.6 µM [inhibitor, single point]"
18,CN(C)CCCOc1ccc(C(C)(C)c2ccccc2)cc1,inactive
19,COC(=O)c1ccc2c(c1)C(C)(C)C(/C=C/c1ccccc1O)=[N+]2C,"inconclusive: 3.55 µM [inhibitor, partial curve, poor fit]"
20,COc1ccc(/C=C/c2nc(S(=O)(=O)c3ccccc3)c(N(C)C)o2)cc1OC,"inconclusive: 5.01 µM [inhibitor, full curve]"
21,COc1ccc(NC(=O)c2c(NCc3cccc(OC)c3)sc3c2CCCC3)cc1,inactive
22,c1ccc(Nc2ncnc3ccc(-c4ccoc4)cc23)cc1,"inconclusive: 39.8 µM [inhibitor, single point]"
23,Cc1cn([C@H]2C[C@H](O)[C@@H](CO)O2)c(=O)[nH]c1=O,inactive
24,O=C(CCC1N=C2c3ccccc3N=C(SCc3ccccc3F)N2C1=O)NCc1ccc(F)cc1 (stereo not given),inactive

row,SMILES,Potency
1,CCOC(=O)c1ccc(-n2[nH]c(-c3ccccc3)cc2=O)cc1,"inconclusive: 35.5 µM [inhibitor, single point]"
2,CC1=C(c2ccc(Cl)cc2)S(=O)(=O)N=C1N1CCC(C(=O)NCc2ccccc2F)CC1,inactive
3,Cc1sc(-n2c(C)cc(/C=C3\SC(=S)NC3=O)c2C)c(C#N)c1C,"inconclusive: 31.6 µM [inhibitor, single point]"
4,COC1=C(Nc2ccc(O)cc2)C(=O)c2ccccc2C1=O,inactive
5,O=C(O)c1cccc(N/N=C/c2cccnc2)c1,"inconclusive: 7.08 µM [inhibitor, single point]"
6,Cc1cc(Nc2ccc(N3CCOCC3)cc2)c2cccc(C)c2n1,"inconclusive: 10 µM [inhibitor, partial curve, poor fit]"
7,CCN(CC)S(=O)(=O)c1cccc(C(=O)N2CCCCC2)c1,inactive
8,CC(=O)Nc1nc2n(n1)C(c1ccccc1)C=C(c1ccccc1)N2 (stereo not given),"inconclusive: 35.5 µM [inhibitor, single point]"
9,N#CC(C(=O)Nc1ccccc1)=C1CCCCC1,"inconclusive: 39.8 µM [inhibitor, single point]"
10,Cc1ccc(C)c(N2CCN(C(=O)c3ccc4c(=O)n5c(nc4c3)CCCCC5)CC2)c1,"inconclusive: 7.94 µM [inhibitor, single point]"
11,CCCCCCCC#Cc1ccccc1/C=N/S(=O)c1ccc(C)cc1 (stereo not given),"inconclusive: 25.1 µM [inhibitor, single point]"
12,O=C(CSc1ccc(-c2nc3ccccc3[nH]2)cn1)Nc1ccc2c(c1)OCCO2,inactive
13,COc1cccc(CNc2ccc(Br)cn2)c1O,"inconclusive: 5.62 µM [inhibitor, single point]"
14,Cc1ccc(-c2cc(C(=O)NN=C3CCCC3)c3ccccc3n2)cc1,inactive
15,COc1cccc(-n2c(SCC(=O)Nc3cc(C)on3)nc3c([nH]c4ccccc43)c2=O)c1,inactive
16,COc1ccc2oc(=O)c(C(=O)Oc3ccc(NC(C)=O)cc3)cc2c1,"inconclusive: 0.794 µM [inhibitor, full curve, poor fit]"
17,CCOc1cc(/C=N/NC(=O)C2CC2)ccc1OC(C)C,inactive
18,CC(/C=N/NC(=O)c1cc(C(C)C)[nH]n1)=C\c1ccccc1,inactive
19,COc1ccc(C(=O)NCCSCc2ccccc2C)cc1,"inconclusive: 0.891 µM [inhibitor, full curve]"
20,CN(C)c1ccc(/C=N/NC(=O)c2cnc3ccccc3c2)cc1,"inconclusive: 0.141 µM [inhibitor, full curve, poor fit]"
21,COc1ccc(-c2n[nH]c(=S)n2-c2ccc(C)cc2)cc1,"inconclusive: 22.4 µM [inhibitor, single point]"
22,Cc1cc(=O)oc2cc(NC(=O)c3ccccc3C(=O)O)ccc12,"inconclusive: 6.31 µM [inhibitor, full curve, poor fit]"
23,c1ccc(-c2nc3ccccc3o2)nc1,"inconclusive: 1.12 µM [inhibitor, partial curve]"
24,COc1cccc(CNCc2cccnc2)c1OCc1ccccc1,"inconclusive: 0.158 µM [inhibitor, full curve]"

# Look-ups from the results shown.
# For Potency, COc1ccc2oc(=O)c(C(=O)Oc3ccc(NC(C)=O)cc3)cc2c1 is entered as inconclusive: 0.794 µM [inhibitor, full curve, poor fit]
# For Potency, CCN(CC)S(=O)(=O)c1cccc(C(=O)N2CCCCC2)c1 is entered as inactive
# For Potency, CC1=C(c2ccc(Cl)cc2)S(=O)(=O)N=C1N1CCC(C(=O)NCc2ccccc2F)CC1 is entered as inactive
# For Potency, Cc1ccc(C)c(N2CCN(C(=O)c3ccc4c(=O)n5c(nc4c3)CCCCC5)CC2)c1 is entered as inconclusive: 7.94 µM [inhibitor, single point]
# For Potency, CCCCCCCC#Cc1ccccc1/C=N/S(=O)c1ccc(C)cc1 (stereo not given) is entered as inconclusive: 25.1 µM [inhibitor, single point]

# The list continues:

row,SMILES,Potency
1,CCCCN(C)CCNC(=O)c1cc2cc3ccc(OC)cc3nc2o1,"inconclusive: 7.08 µM [inhibitor, partial curve]"
2,Cc1cccc(NC(=O)CS(=O)CC(=O)Nc2cnc3ccccc3c2)c1C (stereo not given),inactive
3,Cc1ccc(S(=O)(=O)N2CCCCC2)cc1C(=O)OC1CCCCC1=O (stereo not given),inactive
4,CCOc1ccccc1NC(=S)N1CCCCCC1,"inconclusive: 0.112 µM [inhibitor, full curve, poor fit]"
5,COc1ccc(OCC(=O)NC(=S)Nc2ccc(S(=O)(=O)Nc3cc(C)on3)cc2)cc1,"inconclusive: 3.16 µM [inhibitor, full curve, poor fit]"
6,CCn1cnc2c(NCCc3cccnc3)nc(C#N)nc21,"inconclusive: 25.1 µM [inhibitor, single point]"
7,Nc1nc(Sc2c([N+](=O)[O-])cc(C(F)(F)F)cc2[N+](=O)[O-])n[nH]1,"inconclusive: 3.16 µM [inhibitor, partial curve, poor fit]"
8,CCC(C)(C)C1CCC2(CC1)NC(=O)N(CC(=O)Nc1cc(C(F)(F)F)ccc1N1CCOCC1)C2=O (stereo not given),"inconclusive: 10 µM [inhibitor, partial curve, poor fit]"
9,Cc1sc2nc(SCC(=O)Nc3ccc(S(N)(=O)=O)cc3)[nH]c(=O)c2c1C,"inconclusive: 7.94 µM [inhibitor, full curve, poor fit]"
10,COc1ccc(C)cc1NC(=O)NC(C)c1c(-n2cccc2)sc(C)c1C (stereo not given),inactive
11,O=C(Nc1ccccc1Cl)N1CCN(c2ncccn2)CC1,"inconclusive: 0.501 µM [inhibitor, full curve, poor fit]"
12,CCSc1ccc(NC(=O)c2cccnc2)cc1,"inconclusive: 1.26 µM [inhibitor, full curve, poor fit]"
13,Cc1ccc(C2=NS(=O)(=O)N(C)C(C(=O)Nc3ccc(F)cc3F)=C2)cc1,"inconclusive: 0.794 µM [inhibitor, partial curve, poor fit]"
14,O=C(NCCS(=O)(=O)N1CCN(c2ccccc2)CC1)c1cccc(F)c1,"inconclusive: 39.8 µM [inhibitor, single point]"
15,C=CCN(C(=O)CSc1nc2c(sc3ccccc32)c(=O)n1CCN(CC)CC)c1ccccc1,inactive
16,Cc1cc(C)n(/N=C\c2c(O)ccc3ccccc23)c(=O)c1C(N)=O,"inconclusive: 12.6 µM [inhibitor, partial curve, poor fit]"
17,Clc1ccc(-c2nc3sccn3c2/C=N/OCc2ccc(Cl)c(Cl)c2)cc1,inactive
18,CCn1cc(C(=O)NC2CCCc3c2cnn3-c2cccc(C)c2C)cn1 (stereo not given),"inconclusive: 28.2 µM [inhibitor, single point]"
19,CC(C)N(Cc1ccccc1)C(=O)CN1c2cccc3cccc(c23)S1(=O)=O,inactive
20,CN(C)c1ccc(C#Cc2ccc3cc(CCO)oc(=O)c3c2)cc1,"inconclusive: 22.4 µM [inhibitor, partial curve]"
21,Cn1c(=O)c(-c2ccc(Cl)cc2)nc2cnc(N3CCNCC3)nc21,"inconclusive: 31.6 µM [inhibitor, partial curve]"
22,Cn1c(SCC(=O)Nc2nccs2)nnc1-c1ccncc1,"inconclusive: 8.91 µM [inhibitor, single point]"
